Among the data in the supplement of paper PMC10735217 are TEAD-luciferase reporter activity values, retold here.

In the test the test system is HEK293A TEAD-LUC reporter. Nature of the test: TEAD-luciferase reporter activity (YAP activation), robust Z score vs plate; higher = stronger YAP/TEAD activation. Conditions: 24 h. Background: A reporter such as luciferase makes a cellular process visible.

Structures can show the parent of a compound that is named as a salt. The list shows a part of the results. Repeats in this data set agree poorly, so a single value says little.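 In a drug-repurposing library screen, luminescence reads luciferase driven by eight TEAD-binding elements, stably integrated into human kidney-derived cells. Compounds scoring over five robust Z scores above the plate mean are called hits.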

For the molecule `C=CC1=C(C)C2=NC1=Cc1c(C)c(CCC(=O)O)c3[n]1[Fe]([Cl])[n]1c(c(C)c(C=C)c1=C2)=CC1=NC(=C3)C(CCC(=O)O)=C1C` [Hemin], the TEAD-luciferase reporter activity is inactive: 0.701 (compound concentration: 200 nM), inactive: -0.335 (compound concentration: 2 uM) and inactive: 1.67 (compound concentration: 10 uM).
The corresponding values for `Cc1nccn1CCC(C(N)=O)(c1ccccc1)c1ccccc1` [imidafenacin] are inactive: -1.68, inactive: 0.454 and inactive: -1.27.
`NC(=S)N/N=C/c1ccncc1` [2016-03-02: Perchlozone]: the TEAD-luciferase reporter activity reads like this: (compound concentration: 200 nM) inactive: -1.33; (compound concentration: 10 uM) active: 6.05.
`NC(=S)N/N=C/c1ccncc1` [_:_2016-03-02: Perchlozone]: the TEAD-luciferase reporter activity (compound concentration: 2 uM) is inactive: -0.467.
For the molecule `CN1CCC(n2[nH]c(-c3ccccc3)c(Cc3ccccc3)c2=O)CC1` [Benzpiperilone], the TEAD-luciferase reporter activity is, setting by setting: (compound concentration: 200 nM) inactive: 1.73; (compound concentration: 10 uM) inactive: 1.92.
As to `CN1CCC(n2[nH]c(-c3ccccc3)c(Cc3ccccc3)c2=O)CC1`, where the note is “compound concentration: 2 uM”, the TEAD-luciferase reporter activity was inactive: -2.2.
As to `COc1cccc(C(O)CN2CCN(c3ccccc3OC)CC2)c1` (stereo not given), the TEAD-luciferase reporter activity (compound concentration: 200 nM) was inactive: -1.43, the TEAD-luciferase reporter activity (compound concentration: 2 uM) was inactive: -1.89 and the TEAD-luciferase reporter activity (compound concentration: 10 uM) was inactive: 1.13.
Consider `Cc1ccc(C#Cc2ccc(S(=O)(=O)N[C@H](Cc3c[nH]c4ccccc34)C(=O)O)s2)cc1`, for which the TEAD-luciferase reporter activity by setting is: (compound concentration: 200 nM) inactive: 0.173; (compound concentration: 2 uM) inactive: 0.0308; (compound concentration: 10 uM) inactive: 0.947.
On the same counts, the results for `O=C(O)c1ccc(CN(Cc2cccc(F)c2)c2ccc(OCc3ccc4ccccc4n3)cc2)cc1` are inactive: -1.53, inactive: 0.0779 and inactive: 3.27.
As to `COc1cc(CNC(=O)CCCC/C=C\C(C)C)ccc1O` [zucapsaicin], the TEAD-luciferase reporter activity is inactive: 0.332 (compound concentration: 200 nM) and inactive: 0.474 (compound concentration: 10 uM).
For `COc1cc(CNC(=O)CCCC/C=C\C(C)C)ccc1O` [civamide], the TEAD-luciferase reporter activity (compound concentration: 2 uM) is inactive: -1.25.
For the molecule `C=CCNC(=O)N1CC(Oc2ccc(Cl)cc2)C1`, the TEAD-luciferase reporter activity was inactive: -1.36 (compound concentration: 200 nM), inactive: -0.248 (compound concentration: 2 uM) and inactive: -0.878 (compound concentration: 10 uM).
On the same counts, the results for `CCCCCCCCCCCCCCCC[N+](C)(C)C1CCCCC1O` (stereo not given) are inactive: -0.252, inactive: -1.43 and inactive: 1.26.
The corresponding values for `CCCC1(CC(=O)O)OCCc2c1[nH]c1ccccc21` (stereo not given) [prodolic acid] are inactive: -0.363, inactive: -0.029 and inactive: 1.86.
On the same counts, the results for `O=CN(O)CCCP(=O)([O-])O` [fosmidomycin] are inactive: -0.961, inactive: -0.0393 and inactive: -0.391.
Turning to `COc1ccc(N2CCN(c3cccc(C)c3)CC2)nn1`, the TEAD-luciferase reporter activity is, setting by setting: (compound concentration: 200 nM) inactive: 2.53; (compound concentration: 10 uM) inactive: 1.04.
As for `COc1ccc(NC(=O)[C@H](CCCCN)NC(=O)c2cc(NC(=O)[C@H](CCCCN)NC(=O)c3cc(NC(=O)[C@H](CCCCN)NC(=O)c4cc(NC(=O)[C@@H](N)CCCCN)ccc4OC)ccc3OC)ccc2OC)cc1C(N)=O` [delparantag], the TEAD-luciferase reporter activity is, setting by setting: (compound concentration: 200 nM) inactive: -0.236; (compound concentration: 2 uM) inactive: -1.17; (compound concentration: 10 uM) inactive: 4.38.
On the same counts, the results for `CC(=O)NC[C@H]1CN(c2ccc(N(C)S(C)(=O)=O)c(F)c2)C(=O)O1` are inactive: -1.56, inactive: -1.03 and inactive: 0.202.
For the molecule `CC(=O)OCC(=O)NCCCOc1cccc(CN2CCCCC2)c1` [roxatidine acetate??hydrochloride], the TEAD-luciferase reporter activity was inactive: 0.459 (compound concentration: 200 nM) and inactive: -0.363 (compound concentration: 10 uM).
Consider `CC(=O)OCC(=O)NCCCOc1cccc(CN2CCCCC2)c1` [roxatidine acetate HCl], for which the TEAD-luciferase reporter activity (compound concentration: 2 uM) was inactive: -0.296.
On to `CC(=O)N[C@@H]1C[C@H](NC(C)(C)C)CC[C@@H]1N1CC[C@H](Nc2ncnc3cc(C(C)(C)C)nn23)C1=O`, for which the TEAD-luciferase reporter activity was inactive: 0.732 (compound concentration: 200 nM), inactive: -0.503 (compound concentration: 2 uM) and inactive: -0.285 (compound concentration: 10 uM).
Turning to `CC(C[N+](C)(C)C)OC(N)=O` (stereo not given) [Urecholine], the TEAD-luciferase reporter activity is inactive: -0.281 (compound concentration: 200 nM) and inactive: -1.08 (compound concentration: 10 uM).
`CC(C[N+](C)(C)C)OC(N)=O` (stereo not given) [Bethanechol chloride]: the TEAD-luciferase reporter activity (compound concentration: 2 uM) is inactive: -0.83.
`NC(=O)C1(N2CCCCC2)CCN(CCCC(=O)c2ccc(F)cc2)CC1` [Pipamperone]: the TEAD-luciferase reporter activity is, setting by setting: (compound concentration: 200 nM) inactive: 0.411; (compound concentration: 2 uM) inactive: -0.442; (compound concentration: 10 uM) inactive: -1.87.
For the molecule `C=CCN1CCc2cc(O)c(O)cc2C(c2ccccc2)C1` (stereo not given), the TEAD-luciferase reporter activity reads like this: (compound concentration: 200 nM) inactive: -2.82; (compound concentration: 2 uM) inactive: -1.09; (compound concentration: 10 uM) inactive: 3.59.
On the same counts, the results for `COc1cccc(N(CC(=O)N(C)c2ccccc2)C(=O)CNC(=O)Nc2cccc(C(C)C(=O)O)c2)c1` (stereo not given) are inactive: -0.799, inactive: 2.33 and inactive: -1.24.
The corresponding values for `COc1cc(S(C)(=O)=O)ccc1Nc1nc2ccc(-c3ccc(NC(=O)[C@H](C)c4ccc(F)cc4)cc3)cn2n1` are inactive: 0.306, inactive: -1.09 and inactive: 0.554.
